In doi:10.1101/2020.07.06.189340:
Results are given in words; binding and its absence hold for the method and conditions named. In cells and extracts the contact can be indirect. Some entries that bind do so weakly or less than the wild type. For some of these results: Tags and fused reporters may be left off the sequences shown.

Amino acid sequences for entries named in this document (tags omitted). A change or cut given only in a name is not applied to a line headed by its entry.
UniProt Q14203: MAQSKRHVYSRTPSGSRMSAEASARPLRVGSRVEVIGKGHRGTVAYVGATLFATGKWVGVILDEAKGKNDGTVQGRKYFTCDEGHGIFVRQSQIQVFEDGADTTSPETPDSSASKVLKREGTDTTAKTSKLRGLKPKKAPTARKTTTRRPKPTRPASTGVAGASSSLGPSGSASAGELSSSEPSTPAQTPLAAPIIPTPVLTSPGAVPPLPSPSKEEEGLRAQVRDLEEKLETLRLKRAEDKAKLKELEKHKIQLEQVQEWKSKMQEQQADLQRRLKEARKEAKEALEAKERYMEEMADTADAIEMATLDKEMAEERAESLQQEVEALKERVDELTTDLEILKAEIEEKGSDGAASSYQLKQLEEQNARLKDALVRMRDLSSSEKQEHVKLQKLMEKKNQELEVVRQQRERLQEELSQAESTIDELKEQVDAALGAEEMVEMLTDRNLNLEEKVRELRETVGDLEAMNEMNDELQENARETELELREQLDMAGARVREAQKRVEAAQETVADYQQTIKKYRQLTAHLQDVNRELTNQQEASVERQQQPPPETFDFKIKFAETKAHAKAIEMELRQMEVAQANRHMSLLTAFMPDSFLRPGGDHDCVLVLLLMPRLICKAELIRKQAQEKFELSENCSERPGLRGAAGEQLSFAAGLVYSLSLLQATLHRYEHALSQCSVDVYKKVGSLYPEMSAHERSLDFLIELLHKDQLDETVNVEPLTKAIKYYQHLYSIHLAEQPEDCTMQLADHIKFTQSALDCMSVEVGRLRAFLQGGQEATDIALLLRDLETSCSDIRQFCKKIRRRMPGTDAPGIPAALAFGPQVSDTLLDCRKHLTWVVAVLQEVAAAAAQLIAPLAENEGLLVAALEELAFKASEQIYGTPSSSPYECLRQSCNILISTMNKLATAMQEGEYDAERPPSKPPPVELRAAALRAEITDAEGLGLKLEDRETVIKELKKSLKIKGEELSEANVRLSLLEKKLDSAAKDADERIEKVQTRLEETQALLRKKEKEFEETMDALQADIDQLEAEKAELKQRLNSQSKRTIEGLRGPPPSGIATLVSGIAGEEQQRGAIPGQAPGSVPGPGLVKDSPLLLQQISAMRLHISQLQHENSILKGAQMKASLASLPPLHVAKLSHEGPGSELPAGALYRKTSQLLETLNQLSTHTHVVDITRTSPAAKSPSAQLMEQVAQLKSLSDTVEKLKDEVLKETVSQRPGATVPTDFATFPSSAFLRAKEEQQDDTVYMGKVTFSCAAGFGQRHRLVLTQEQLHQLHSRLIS
UniProt Q14204: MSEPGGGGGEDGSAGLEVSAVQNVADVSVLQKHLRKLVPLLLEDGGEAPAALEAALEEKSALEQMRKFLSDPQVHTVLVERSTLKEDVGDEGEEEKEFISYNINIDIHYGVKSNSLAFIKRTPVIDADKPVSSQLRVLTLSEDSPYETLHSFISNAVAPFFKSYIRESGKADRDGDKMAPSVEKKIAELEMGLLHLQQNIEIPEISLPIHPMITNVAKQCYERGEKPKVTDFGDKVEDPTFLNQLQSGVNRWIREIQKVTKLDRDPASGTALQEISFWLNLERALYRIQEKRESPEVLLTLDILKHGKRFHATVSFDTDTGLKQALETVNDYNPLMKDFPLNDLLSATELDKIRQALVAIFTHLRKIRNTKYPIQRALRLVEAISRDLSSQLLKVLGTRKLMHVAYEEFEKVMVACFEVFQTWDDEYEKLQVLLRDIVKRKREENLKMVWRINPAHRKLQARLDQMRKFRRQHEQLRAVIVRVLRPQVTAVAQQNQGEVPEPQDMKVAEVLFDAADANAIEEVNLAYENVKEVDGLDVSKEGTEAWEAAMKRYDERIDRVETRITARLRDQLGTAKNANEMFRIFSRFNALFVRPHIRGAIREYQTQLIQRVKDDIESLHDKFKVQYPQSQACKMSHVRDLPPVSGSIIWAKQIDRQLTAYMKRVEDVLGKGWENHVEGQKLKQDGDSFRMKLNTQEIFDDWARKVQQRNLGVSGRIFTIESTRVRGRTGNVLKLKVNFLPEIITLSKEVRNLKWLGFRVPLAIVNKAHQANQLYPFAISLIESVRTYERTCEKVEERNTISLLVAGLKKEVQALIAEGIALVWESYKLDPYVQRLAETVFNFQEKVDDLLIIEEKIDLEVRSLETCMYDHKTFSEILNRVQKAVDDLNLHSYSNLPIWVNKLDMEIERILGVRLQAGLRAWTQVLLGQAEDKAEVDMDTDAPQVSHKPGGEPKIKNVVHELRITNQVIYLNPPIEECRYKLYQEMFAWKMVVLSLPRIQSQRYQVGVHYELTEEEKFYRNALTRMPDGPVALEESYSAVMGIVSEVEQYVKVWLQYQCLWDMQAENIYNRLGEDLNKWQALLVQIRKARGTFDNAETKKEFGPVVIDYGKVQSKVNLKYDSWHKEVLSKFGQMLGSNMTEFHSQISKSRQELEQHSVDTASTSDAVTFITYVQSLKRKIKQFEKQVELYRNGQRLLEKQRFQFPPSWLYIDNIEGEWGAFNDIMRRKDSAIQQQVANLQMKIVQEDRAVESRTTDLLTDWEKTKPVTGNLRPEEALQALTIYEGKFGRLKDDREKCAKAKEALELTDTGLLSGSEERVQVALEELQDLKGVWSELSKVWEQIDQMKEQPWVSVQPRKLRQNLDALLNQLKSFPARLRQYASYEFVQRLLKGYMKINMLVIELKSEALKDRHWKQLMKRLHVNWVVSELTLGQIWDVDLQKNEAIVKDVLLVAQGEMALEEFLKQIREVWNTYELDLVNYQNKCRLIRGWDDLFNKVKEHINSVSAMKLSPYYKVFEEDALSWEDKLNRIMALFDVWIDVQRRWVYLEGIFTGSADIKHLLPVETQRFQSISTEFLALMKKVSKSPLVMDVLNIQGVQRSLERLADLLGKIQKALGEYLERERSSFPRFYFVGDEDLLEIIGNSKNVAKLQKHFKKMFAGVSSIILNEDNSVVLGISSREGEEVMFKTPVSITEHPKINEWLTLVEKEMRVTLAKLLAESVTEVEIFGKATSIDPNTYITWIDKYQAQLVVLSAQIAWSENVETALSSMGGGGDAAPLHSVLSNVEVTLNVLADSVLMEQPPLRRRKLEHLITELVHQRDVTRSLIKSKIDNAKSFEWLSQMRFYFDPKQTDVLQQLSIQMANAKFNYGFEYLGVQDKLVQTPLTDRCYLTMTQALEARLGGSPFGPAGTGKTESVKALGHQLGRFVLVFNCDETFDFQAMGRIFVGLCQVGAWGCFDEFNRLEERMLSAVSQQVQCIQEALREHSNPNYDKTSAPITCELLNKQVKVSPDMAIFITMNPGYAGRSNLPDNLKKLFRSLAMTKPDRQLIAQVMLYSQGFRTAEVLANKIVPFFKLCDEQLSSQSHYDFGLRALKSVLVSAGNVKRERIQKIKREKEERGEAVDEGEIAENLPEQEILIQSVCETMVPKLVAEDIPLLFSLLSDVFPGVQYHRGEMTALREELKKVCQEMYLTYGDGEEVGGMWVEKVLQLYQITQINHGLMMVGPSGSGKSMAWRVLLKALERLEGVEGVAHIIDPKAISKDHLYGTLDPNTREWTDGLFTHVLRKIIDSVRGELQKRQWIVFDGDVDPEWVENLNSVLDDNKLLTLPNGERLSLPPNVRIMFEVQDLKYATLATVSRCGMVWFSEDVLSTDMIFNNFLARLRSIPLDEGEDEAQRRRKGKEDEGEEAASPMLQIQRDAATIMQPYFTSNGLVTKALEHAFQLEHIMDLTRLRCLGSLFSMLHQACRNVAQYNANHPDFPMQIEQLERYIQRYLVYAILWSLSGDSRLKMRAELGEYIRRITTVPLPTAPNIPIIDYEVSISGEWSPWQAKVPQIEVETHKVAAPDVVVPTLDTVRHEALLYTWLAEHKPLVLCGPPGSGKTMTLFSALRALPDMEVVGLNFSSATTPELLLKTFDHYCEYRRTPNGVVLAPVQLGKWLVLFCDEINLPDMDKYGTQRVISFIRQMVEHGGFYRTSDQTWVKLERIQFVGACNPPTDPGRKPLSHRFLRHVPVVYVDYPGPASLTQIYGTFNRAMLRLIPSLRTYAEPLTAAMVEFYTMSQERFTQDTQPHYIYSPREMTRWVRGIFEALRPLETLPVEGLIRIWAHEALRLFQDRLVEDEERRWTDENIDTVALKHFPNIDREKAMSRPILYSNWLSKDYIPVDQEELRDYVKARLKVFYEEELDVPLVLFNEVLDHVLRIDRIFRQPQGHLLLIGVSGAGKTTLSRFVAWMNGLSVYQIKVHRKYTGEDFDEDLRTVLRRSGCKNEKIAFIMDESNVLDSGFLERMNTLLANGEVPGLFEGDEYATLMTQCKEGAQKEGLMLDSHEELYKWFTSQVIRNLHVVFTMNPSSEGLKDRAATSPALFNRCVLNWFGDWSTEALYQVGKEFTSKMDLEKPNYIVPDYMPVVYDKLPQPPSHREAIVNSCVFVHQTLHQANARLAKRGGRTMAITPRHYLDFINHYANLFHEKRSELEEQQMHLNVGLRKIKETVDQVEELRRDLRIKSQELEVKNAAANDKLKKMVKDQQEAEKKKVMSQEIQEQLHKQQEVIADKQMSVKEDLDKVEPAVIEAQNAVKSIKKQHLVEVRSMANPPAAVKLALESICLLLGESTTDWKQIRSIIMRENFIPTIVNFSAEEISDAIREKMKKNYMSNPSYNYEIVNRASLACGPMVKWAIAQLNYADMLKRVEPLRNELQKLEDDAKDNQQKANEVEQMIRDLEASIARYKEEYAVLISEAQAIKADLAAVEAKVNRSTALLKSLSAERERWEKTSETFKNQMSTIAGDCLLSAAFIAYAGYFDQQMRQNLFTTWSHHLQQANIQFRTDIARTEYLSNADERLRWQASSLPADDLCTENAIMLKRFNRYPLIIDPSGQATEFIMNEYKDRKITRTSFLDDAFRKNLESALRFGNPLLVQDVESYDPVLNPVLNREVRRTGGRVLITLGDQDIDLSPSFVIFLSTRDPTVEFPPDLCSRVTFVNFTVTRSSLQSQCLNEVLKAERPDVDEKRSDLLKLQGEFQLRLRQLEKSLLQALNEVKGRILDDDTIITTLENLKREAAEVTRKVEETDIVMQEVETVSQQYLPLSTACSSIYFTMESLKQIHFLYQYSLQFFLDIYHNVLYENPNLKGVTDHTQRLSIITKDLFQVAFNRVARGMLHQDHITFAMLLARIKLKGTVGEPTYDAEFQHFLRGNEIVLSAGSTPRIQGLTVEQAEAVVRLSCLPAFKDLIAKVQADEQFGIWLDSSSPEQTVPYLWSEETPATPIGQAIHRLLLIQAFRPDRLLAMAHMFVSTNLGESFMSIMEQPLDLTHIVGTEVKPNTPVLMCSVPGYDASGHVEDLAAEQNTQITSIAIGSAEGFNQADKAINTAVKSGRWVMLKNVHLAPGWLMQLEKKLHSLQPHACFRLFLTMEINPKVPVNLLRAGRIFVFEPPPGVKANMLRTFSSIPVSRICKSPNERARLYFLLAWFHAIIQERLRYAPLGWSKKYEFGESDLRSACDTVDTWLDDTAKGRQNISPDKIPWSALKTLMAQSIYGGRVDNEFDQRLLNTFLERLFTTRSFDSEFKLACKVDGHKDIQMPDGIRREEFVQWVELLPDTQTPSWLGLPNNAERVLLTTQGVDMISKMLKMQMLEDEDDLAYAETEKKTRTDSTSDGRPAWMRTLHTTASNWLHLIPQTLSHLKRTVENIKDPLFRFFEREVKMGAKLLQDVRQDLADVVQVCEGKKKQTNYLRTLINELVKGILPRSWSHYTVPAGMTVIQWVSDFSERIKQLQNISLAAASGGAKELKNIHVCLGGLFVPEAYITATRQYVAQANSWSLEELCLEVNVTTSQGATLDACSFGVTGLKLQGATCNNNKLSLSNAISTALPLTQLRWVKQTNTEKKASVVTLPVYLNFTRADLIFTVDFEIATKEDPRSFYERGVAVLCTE

T1: GFP-Rab46 N658I (inactive, GDP-locked) (human) (UniProt Q9BSW2)
T1 sequence: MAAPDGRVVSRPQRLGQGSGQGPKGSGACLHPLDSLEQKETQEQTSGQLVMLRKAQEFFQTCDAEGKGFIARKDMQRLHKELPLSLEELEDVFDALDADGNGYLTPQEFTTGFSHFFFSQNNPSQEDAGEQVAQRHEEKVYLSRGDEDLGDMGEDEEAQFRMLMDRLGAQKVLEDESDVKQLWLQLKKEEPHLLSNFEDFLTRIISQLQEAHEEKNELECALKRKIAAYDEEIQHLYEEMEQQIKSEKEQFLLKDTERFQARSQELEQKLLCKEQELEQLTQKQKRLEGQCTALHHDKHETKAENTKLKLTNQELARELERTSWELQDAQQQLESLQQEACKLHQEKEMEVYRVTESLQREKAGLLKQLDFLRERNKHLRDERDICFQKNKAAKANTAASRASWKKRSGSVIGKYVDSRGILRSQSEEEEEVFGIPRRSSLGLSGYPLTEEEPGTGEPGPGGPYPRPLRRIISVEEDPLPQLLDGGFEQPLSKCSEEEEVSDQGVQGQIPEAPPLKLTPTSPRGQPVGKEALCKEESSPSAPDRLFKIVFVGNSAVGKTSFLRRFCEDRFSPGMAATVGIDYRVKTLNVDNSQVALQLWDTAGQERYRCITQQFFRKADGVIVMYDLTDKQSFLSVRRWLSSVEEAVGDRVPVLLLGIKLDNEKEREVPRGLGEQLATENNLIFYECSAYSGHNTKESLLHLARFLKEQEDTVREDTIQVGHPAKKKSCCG

T2: Rab46 (CRACR2A-L), endogenous (human (endogenous in HUVEC)) (UniProt Q9BSW2)
T2 sequence: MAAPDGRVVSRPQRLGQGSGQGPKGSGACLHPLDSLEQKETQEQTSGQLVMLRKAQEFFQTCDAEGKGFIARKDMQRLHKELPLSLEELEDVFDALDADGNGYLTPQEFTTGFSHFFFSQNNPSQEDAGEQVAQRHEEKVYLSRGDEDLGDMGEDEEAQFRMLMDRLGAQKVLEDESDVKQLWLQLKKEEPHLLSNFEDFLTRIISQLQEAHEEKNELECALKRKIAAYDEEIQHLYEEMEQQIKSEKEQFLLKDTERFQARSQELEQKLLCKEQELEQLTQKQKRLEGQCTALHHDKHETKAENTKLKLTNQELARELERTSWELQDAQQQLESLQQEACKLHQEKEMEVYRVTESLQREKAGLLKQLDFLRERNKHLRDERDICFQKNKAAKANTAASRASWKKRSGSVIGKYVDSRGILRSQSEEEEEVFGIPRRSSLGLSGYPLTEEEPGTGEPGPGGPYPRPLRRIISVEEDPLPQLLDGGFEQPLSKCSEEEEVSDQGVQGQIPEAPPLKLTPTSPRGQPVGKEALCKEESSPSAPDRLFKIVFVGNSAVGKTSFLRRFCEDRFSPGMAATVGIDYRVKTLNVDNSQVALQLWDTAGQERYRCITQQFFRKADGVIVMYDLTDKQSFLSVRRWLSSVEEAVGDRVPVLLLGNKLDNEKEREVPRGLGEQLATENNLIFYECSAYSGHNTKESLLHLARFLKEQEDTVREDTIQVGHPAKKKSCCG


Assays:
Assay in all cases: co-IP
[1] = target: T1, GFP-Rab46 N658I (inactive, GDP-locked) (human)
[2] = target: T2, Rab46 (CRACR2A-L), endogenous (human (endogenous in HUVEC))
[3] = target: p150^Glued, subunit of dynactin, endogenous (human (endogenous in HUVEC)) (UniProt Q14203)
[4] = target: dynein heavy chain (DHC), endogenous (human (endogenous in HUVEC)) (UniProt Q14204)

| Molecule | binding [1] | binding [2] | binding [3] | binding [4] |
| --- | --- | --- | --- | --- |
| dynein heavy chain (DHC), endogenous (from UniProt Q14204 1-4646) | no binding | binds | binds |  |
| p150^Glued, subunit of dynactin, endogenous (from UniProt Q14203-1 1-1278) |  | binds |  | binds |
| Rab46 (CRACR2A-L), endogenous (protein, UniProt Q9BSW2-2 1-731) MAAPDGRVVSRPQRLGQGSGQGPKGSGACLHPLDSLEQKETQEQTSGQLVMLRKAQEFFQTCDAEGKGFIARKDMQRLHKELPLSLEELEDVFDALDADGNGYLTPQEFTTGFSHFFFSQNNPSQEDAGEQVAQRHEEKVYLSRGDEDLGDMGEDEEAQFRMLMDRLGAQKVLEDESDVKQLWLQLKKEEPHLLSNFEDFLTRIISQLQEAHEEKNELECALKRKIAAYDEEIQHLYEEMEQQIKSEKEQFLLKDTERFQARSQELEQKLLCKEQELEQLTQKQKRLEGQCTALHHDKHETKAENTKLKLTNQELARELERTSWELQDAQQQLESLQQEACKLHQEKEMEVYRVTESLQREKAGLLKQLDFLRERNKHLRDERDICFQKNKAAKANTAASRASWKKRSGSVIGKYVDSRGILRSQSEEEEEVFGIPRRSSLGLSGYPLTEEEPGTGEPGPGGPYPRPLRRIISVEEDPLPQLLDGGFEQPLSKCSEEEEVSDQGVQGQIPEAPPLKLTPTSPRGQPVGKEALCKEESSPSAPDRLFKIVFVGNSAVGKTSFLRRFCEDRFSPGMAATVGIDYRVKTLNVDNSQVALQLWDTAGQERYRCITQQFFRKADGVIVMYDLTDKQSFLSVRRWLSSVEEAVGDRVPVLLLGNKLDNEKEREVPRGLGEQLATENNLIFYECSAYSGHNTKESLLHLARFLKEQEDTVREDTIQVGHPAKKKSCCG |  |  | binds | binds |
